Laboratory results published in PMC6448480, “A Two-Way Proteome Microarray Strategy to Identify Novel Mycobacterium tuberculosis-Human Interactors” (Frontiers in Cellular and Infection Microbiology, 2019).
Results are given in words; binding and its absence hold for the method and conditions named. In cells and extracts the contact can be indirect. Some results given as binding are weak or reduced against the parent protein; the word gives no strength. For part of these data: Sequences can lack the tags named with a protein.

The chains behind the UniProt entries cited, without tags or fusion partners.
UniProt P71925: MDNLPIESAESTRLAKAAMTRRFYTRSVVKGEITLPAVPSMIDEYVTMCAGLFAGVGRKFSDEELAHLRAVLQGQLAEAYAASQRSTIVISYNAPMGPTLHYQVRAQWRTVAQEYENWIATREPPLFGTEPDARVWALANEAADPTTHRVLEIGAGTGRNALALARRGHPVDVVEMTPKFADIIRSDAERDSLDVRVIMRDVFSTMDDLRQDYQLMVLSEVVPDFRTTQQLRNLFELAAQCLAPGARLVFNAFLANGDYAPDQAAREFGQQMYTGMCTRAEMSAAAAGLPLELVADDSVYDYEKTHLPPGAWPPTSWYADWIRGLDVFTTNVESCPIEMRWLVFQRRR
UniProt O33252: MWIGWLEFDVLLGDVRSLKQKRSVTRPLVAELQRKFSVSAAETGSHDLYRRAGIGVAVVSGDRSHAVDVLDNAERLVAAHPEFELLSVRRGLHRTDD
UniProt Q15796: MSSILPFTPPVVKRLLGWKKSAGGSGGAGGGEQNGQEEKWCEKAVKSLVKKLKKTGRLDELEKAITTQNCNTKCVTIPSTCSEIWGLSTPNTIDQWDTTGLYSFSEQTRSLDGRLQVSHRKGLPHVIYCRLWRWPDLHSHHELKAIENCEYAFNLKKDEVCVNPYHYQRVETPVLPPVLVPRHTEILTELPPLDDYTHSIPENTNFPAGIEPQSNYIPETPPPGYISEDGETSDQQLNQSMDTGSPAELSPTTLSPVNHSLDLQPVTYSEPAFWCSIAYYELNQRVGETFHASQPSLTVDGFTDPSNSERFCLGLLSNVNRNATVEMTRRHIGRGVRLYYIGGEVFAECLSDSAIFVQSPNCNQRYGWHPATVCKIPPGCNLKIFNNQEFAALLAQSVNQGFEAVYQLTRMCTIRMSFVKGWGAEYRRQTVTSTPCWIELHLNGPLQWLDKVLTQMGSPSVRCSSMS

How the values were obtained:
Assay in all cases: co-IP
[1] = molecular target: Flag-Rv2423 (Mycobacterium tuberculosis) (UniProt P71925)
[2] = molecular target: Flag-Rv2117 (Mycobacterium tuberculosis) (UniProt O33252)
[3] = molecular target: T1, Flag-Rv0577 (Mycobacterium tuberculosis) (UniProt P9WIR3)
T1 sequence: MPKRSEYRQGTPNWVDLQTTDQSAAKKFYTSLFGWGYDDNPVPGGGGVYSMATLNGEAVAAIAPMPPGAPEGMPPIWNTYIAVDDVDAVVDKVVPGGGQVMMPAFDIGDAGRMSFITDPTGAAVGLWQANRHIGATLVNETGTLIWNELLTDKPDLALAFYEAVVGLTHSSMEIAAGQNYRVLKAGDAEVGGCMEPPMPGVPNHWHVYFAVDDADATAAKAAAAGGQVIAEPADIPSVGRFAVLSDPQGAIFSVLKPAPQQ

Measured: binding

endogenous SMAD2 (HEK293T) (from UniProt Q15796 1-467)
binds: [1] | [2] | [3]
